Where “and” joins values, the source holds several entries; their conditions need not be identical. Equal values may be shown once. This is one part of the list. Shown are side measurements of this screen, not its main read-out; they come without a call. Most of these compounds were active or inconclusive in the main read-out, so they are no random draw. For some of these results: Potencies come from curve fits of mixed quality, noted in brackets.

Chains of the proteins cited; added tags and fusions are not shown. Lines headed by an entry give the natural chain unless they say otherwise; changes in a name come on top.
UniProt P21964: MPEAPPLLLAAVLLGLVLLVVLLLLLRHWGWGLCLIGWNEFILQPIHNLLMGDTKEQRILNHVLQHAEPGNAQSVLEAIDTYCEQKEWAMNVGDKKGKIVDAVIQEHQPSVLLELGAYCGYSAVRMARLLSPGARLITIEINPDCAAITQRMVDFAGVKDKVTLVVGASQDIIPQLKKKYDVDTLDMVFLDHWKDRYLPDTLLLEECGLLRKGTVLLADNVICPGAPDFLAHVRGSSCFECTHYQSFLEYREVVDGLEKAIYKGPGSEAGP
UniProt P50135: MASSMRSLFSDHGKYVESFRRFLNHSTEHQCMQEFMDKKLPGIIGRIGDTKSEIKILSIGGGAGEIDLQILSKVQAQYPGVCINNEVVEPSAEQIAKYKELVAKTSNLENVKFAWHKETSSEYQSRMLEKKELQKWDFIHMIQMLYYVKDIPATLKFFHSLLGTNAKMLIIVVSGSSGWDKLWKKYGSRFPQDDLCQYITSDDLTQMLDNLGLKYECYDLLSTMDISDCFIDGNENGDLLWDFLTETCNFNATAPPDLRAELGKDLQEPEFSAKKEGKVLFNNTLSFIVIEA
UniProt P40261: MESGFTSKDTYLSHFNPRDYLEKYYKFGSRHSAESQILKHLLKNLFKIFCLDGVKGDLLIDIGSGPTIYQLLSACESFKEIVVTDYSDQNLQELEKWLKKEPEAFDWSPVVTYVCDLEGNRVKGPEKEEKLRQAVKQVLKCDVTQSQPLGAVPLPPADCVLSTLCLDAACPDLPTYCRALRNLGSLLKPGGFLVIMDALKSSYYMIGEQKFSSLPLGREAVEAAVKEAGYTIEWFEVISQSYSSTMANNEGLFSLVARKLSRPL
UniProt P11086: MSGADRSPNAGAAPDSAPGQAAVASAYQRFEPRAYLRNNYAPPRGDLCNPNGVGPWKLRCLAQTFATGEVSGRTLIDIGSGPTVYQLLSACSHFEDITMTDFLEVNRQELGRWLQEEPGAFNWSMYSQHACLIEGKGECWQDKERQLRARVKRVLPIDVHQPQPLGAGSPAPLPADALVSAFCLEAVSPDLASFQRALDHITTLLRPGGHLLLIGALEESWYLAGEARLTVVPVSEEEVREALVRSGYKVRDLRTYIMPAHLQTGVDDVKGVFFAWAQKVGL

The nature of assay [1]: qHTS Assay for Inhibitors of PDE-IV (AID 607). The note with it: HEK293 ACTOne CNG channel cells, membrane potential fluorescence; measured here: parental cell counter-screen. The method, boiled down: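 Cell-based read-out of cAMP via a modified cyclic nucleotide-gated channel and membrane potential dye (535/590 nm) in HEK293 cells expressing PDE4 endogenously. Compounds tested up to 22.9 uM final; 100 uM RO 20-1724 reference.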
(In general: Quantitative high-throughput screening tests each substance at several concentrations.)

The nature of assay [2]: qHTS Assay for Lipid Storage Modulators (AID 1519). As to conditions: Drosophila S3 cells, BODIPY lipid droplet/cell ratio, laser cytometry, cells loaded with oleic acid. The method, boiled down: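 Cells seeded at 5,000 per well were treated with compounds over a concentration series and loaded with oleic acid (400 uM, as added). Lipid droplet fluorescence (488 nm excitation, 500-530 nm channel) was read by laser-scanning cytometry and normalized to 20 uM Triacsin C.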

Assay [3] is described as follows: qHTS assay for small molecule antagonists of glucocorticoid receptor signaling (AID 588533). As to conditions: HeLa MMTV-bla, GRE beta-lactamase ratio, antagonist mode, 18 h; measured here: W530 channel AC50.
The nature of assay [4]: qHTS assay for small molecule antagonists of peroxisome proliferator-activated receptor delta signaling (AID 588535).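 Note: cells co-treated with a PPAR-delta agonist as stimulator during compound exposure.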 As to conditions: HEK293T PPARd-UAS-bla, beta-lactamase FRET ratio, 18 h; 460 nm channel. The method, boiled down:
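HEK293T PPAR-delta-UAS-bla cells, 4000/well, 2% charcoal/dextran FBS; 5 h 37 C; cpd titration; 18 h 37 C; CCF4 2 h RT; FI 460/530 nm; Hill fit → IC50, efficacy.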

Assay [5] is described as follows: qHTS assay for small molecule antagonists of vitamin D receptor signaling (AID 588541). The note with it: HEK293T VDR-UAS-bla, beta-lactamase ratio, antagonist mode; measured here: W460 blue channel (cell viability).
A short description of assay [6]: qHTS assay for small molecule agonists of retinoid X receptor alpha signaling (AID 588544). The note with it: HEK293T RXRa-UAS-bla, beta-lactamase reporter, 18 h; 530 nm emission.
Assay [7] can be described thus: qHTS assay for small molecule antagonists of peroxisome proliferator-activated receptor gamma signaling (AID 588537). As to conditions: HEK293 PPARg-UAS-bla, beta-lactamase ratio, antagonist mode; measured here: W460 blue channel. The method, boiled down: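 Antagonist mode, beta-lactamase reporter in HEK293; charcoal/dextran FBS 1%; 3000 cells/well, 37 C 6-6.5 h; cpd titration + rosiglitazone 50 nM final, 16 h 37 C; CCF4, 2 h RT; 460/530 nm; Hill fit → IC50, efficacy.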

Assay [8] can be described thus: qHTS for identification of novel therapeutic agents for treatment of microphthalmiaassociated transcription factor (MiT) renal cell carcinoma (RCC) (AID 1963991). The note with it: CellTiter-Glo, 48 h, stronger effect = lower value. The method, boiled down: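 Curves over 11 concentrations were fitted to CellTiter-Glo luminescence, scaled between empty wells (0%) and DMSO (100%) viability. Cells were UOK109, UOK124 and UOK145 TFE3-fusion RCC lines at 500/well, exposed 48 hours at 37 C.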

A short description of assay [9]: Nrf2 qHTS screen for inhibitors: Validation (AID 493153). The note with it: A549 ARE-Fluc reporter, 18-24 h; AC50: CellTiter-Fluor fluorescence read, measured here: cytotoxicity CellTiter-Fluor AC50; viability change: measured here: cytotoxicity max response. The method, boiled down:
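A549 cells carrying ARE-firefly luciferase reporter, 5000 cells/well in 5% FBS OPTI-MEM, treated with compound over a concentration series for 18-24 h at 37 C. Luciferase luminescence gave Nrf2 activity; CellTiter-Fluor fluorescence gave viability.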

A short description of assay [10]: qHTS assay for small molecule antagonists of retinoid X receptor alpha signaling (AID 588546).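 Note: cells stimulated with 9-cis-retinoic acid as agonist; % is set by controls: 0 for no effect and ±100 for the full control effect.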 As to conditions: HEK293T RXRa-UAS-bla, beta-lactamase ratio, antagonist mode; measured here: W530 green channel, cytotoxicity proxy. The procedure, abridged: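 Beta-lactamase reporter inhibition, read as CCF4 fluorescence ratio (ex 405, em 460/530 nm) after 2 h at RT. HEK293T UAS-bla cells, 2500/well, were stimulated with 9-cis-RA at 500 or 100 nM final alongside test compound for 18 h at 37 C.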

Assay [11] is described as follows: qHTS Assay for Modulators of Human Peripheral Myelin Protein 22 (PMP22) Expression/Activity (AID 1967). As to conditions: Cell-based PMP22 reporter, dual-color luciferase ratio; measured here: red reporter channel AC50; EF-alpha promoter control reporter in MSC80 mouse Schwann cells. The method, boiled down: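 MSC80 mouse Schwann cells stably carrying Pmp22 promoter–green click beetle luciferase plus EF-alpha–red luciferase control were dosed for 24h at 37 °C. Dual-colour luminescence was filter-overlap corrected; %Activity came from green/red ratio versus untreated cells.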

Assay [12] deals with Catechol O-methyltransferase (Homo sapiens) (UniProt P21964). Kind of assay: Confirmatory Screen for Target Class Profiling of Small Molecule Inhibitors of Methyltransferases (AID 1745852). As to conditions: MTase-Glo luminescence, SAH detection, recombinant enzyme; measured here: COMT inhibition potency.
Assay [13] addresses Histamine N-methyltransferase (Homo sapiens) (UniProt P50135). The description is as above. As to conditions: MTase-Glo luminescence, SAH detection, recombinant enzyme; measured here: HNMT inhibition potency.
Assay [14] addresses Nicotinamide N-methyltransferase (Homo sapiens) (UniProt P40261). The assay is described as above. As to conditions: MTase-Glo luminescence, SAH detection, recombinant enzyme; measured here: NNMT inhibition potency.
Assay [15] addresses Phenylethanolamine N-methyltransferase (Homo sapiens) (UniProt P11086). The description is as above. As to conditions: MTase-Glo luminescence, SAH detection, recombinant enzyme; measured here: PNMT inhibition potency.
The mark [16] stands for this setting: measured here: cell count channel max response.
Where [17] appears, read: measured here: cell number channel AC50.
The mark [18] stands for this setting: measured here: lipid (BODIPY) channel AC50.
Setting [19] is: measured here: lipid channel max response.

As usually defined, the AC50 is the midpoint of the concentration-response curve, whichever way the signal moves. Regarding `CN(C(=O)Cc1ccc(Cl)c(Cl)c1)[C@H](CN1CCCC1)c1ccccc1`, the AC50 in assay [1] is 15.8 µM [rising, partial curve, poor fit]; in assay [2] (setting [17]), 3.16 µM [rising, full curve]; in assay [2] (setting [18]), 2.82 µM [rising, full curve]. Moreover, the max response in assay [2] (setting [16]) worked out at 58.5%; in [2] (setting [19]), 78.6%.
On to `N#Cc1c(Cl)c(Cl)c(Cl)c(C#N)c1Cl`, for which the max response was -44.7% in assay [2] (setting [16]), -98% in [2] (setting [19]), -129% in [4] and -28% in assay [6]. The AC50 was 2.24 µM [falling, full curve] in [2] (setting [17]); 1.58 µM [falling, full curve] in [2] (setting [18]); 35.5 µM [falling, partial curve, poor fit] in assay [3]; 4.47 µM [falling, full curve] in assay [5].
Regarding `C/C=C/c1ccc2c(c1)OCO2`, the max response in assay [2] (setting [16]) was found to be 34%; in assay [2] (setting [19]) it was 41.5%. The AC50 was 7.94 µM [rising, partial curve] in [2] (setting [17]); 8.91 µM [rising, partial curve] in [2] (setting [18]); 0.0501 µM [falling, full curve, poor fit] in [7].
Turning to `COc1ccc(C(CN(C)C)C2(O)CCCCC2)cc1` (stereo not drawn), the max response in assay [2] (setting [16]) worked out at 13.1%; in assay [2] (setting [19]), 30.9%. Besides, the AC50 in [2] (setting [18]) was 39.8 µM [rising, single point]. Also, the z-score in [8] (TFE3-RCC UOK109 viability, measured here: UOK109 Z-AUC) amounted to 0.176; in assay [8] (TFE3-RCC viability, measured here: UOK124 Z-AUC), 0.918; in [8] (TFE3-RCC viability, measured here: UOK145 Z-AUC), 0.0325.
`Cc1cc2c(C(C)C)c(O)c(O)c(C=O)c2c(O)c1-c1c(C)cc2c(C(C)C)c(O)c(O)c(C=O)c2c1O`: the max response in assay [2] (setting [16]) was -31.3% and -4.08% and -35.7%; in assay [2] (setting [19]), -41.5% and -17.3% and -60.2%; in [4], -177%; in [10] it was -51.3%. The AC50 in assay [2] (setting [17]) is 5.01 µM [falling, partial curve, poor fit] and 7.94 µM [rising, full curve, poor fit] and 39.8 µM [falling, single point]; in assay [2] (setting [18]), 7.08 µM [rising, full curve, poor fit]; in [9], 14.6 µM [falling, partial curve]; in [3] it was 44.7 µM [falling, single point]; in assay [5] it was 44.7 µM [falling, partial curve]. Moreover, the viability change in assay [9] was -66.2%.
By IC50 is commonly meant the concentration at which inhibition is half-maximal. For the molecule `CN(N=O)c1cc(O)ccc1O`, the figures for the max response in [2] (setting [16]) and in [2] (setting [19]) were -32.5% and -34%, respectively. Moreover, the AC50 in assay [2] (setting [17]) is 39.8 µM [falling, single point]; in assay [11], 37.9 µM [rising, partial curve]. Moreover, the viability change in assay [9] was 11%. Also, the IC50 in [12] is 3.85 µM [falling, full curve]; in assay [13], 43.2 µM [falling, single point]; in assay [14] it was 38.5 µM [falling, single point]; in assay [15], 21.7 µM [falling, partial curve].

Values taken from PubChem BioAssay (NCATS).
